The whole screen tested about 320,000 compounds, of which about 22,000 (6.9%) were called active. The inconclusive results got no clear call from the source; some entries with a clear call stand among them for comparison. The call rests on the fitted dose curve; in most records, active means well fitted inhibition curve with a large enough effect; inconclusive means small, poorly fitted or top-dose-only effect, or another doubt; inactive means no such curve, though single readings can be large or run the other way. Potencies of inconclusive entries are doubtful fits and often do not repeat.
Assay: Primary qHTS for delayed death inhibitors of the malarial parasite plastid, 96 hour incubation
Details: P. falciparum luciferase reporter growth; series mostly up to 28.7 µM; activity change, negative = inhibition: at the top concentration
Method in brief: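 Erythrocytes infected with luciferase-expressing P. falciparum were dispensed at 2% hematocrit and 0.05% parasitemia (final), then incubated with compounds 96 hours at 37 C in 5% CO2. Luminescence after detection reagent addition reported growth.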
On the % scale 0 is the no-effect control and ±100 the full control effect; potency means the concentration at half of the fitted maximal effect.

Which Potency does the source give for `COc1cc(N)ccc1Cc1ccc(N)cc1OC` here?
The Potency was inconclusive: 20.8 µM [inhibitor, partial curve, poor fit].

For `COC(=O)CN1C(=O)N/C(=C/c2ccc(C)o2)C1=O`, which Potency is on record?
Its Potency is active: 10.4 µM.

With `O=C(Cc1cccc2ccccc12)N/N=C/c1ccc2cccc(O)c2n1` as the compound, how does the “activity change, negative = inhibition” value read?
Its value is inactive: -13.1%.

For `Cc1ccc(C)c(/C=C2\CCn3c2nc2cc(C(=O)O)ccc2c3=O)c1`, which “activity change, negative = inhibition” value is on record?
Its value is inactive: 1.3%.

Which Potency does the source give for `CCCCc1cc(=O)oc2cc(OCC(=O)NCCN3CCOCC3)c(Cl)cc12` here?
The Potency was inconclusive: 16.5 µM [inhibitor, single point].

For `COc1cc(OC)c(OC)cc1CNCc1ccc2c(c1)OCO2`, which “activity change, negative = inhibition” value is on record?
Its value is inactive: 9.85%.

With `CCCCNC(=S)N(C)/N=C/c1ccc2c(c1)OCO2` as the compound, how does the “activity change, negative = inhibition” value read?
The value was inactive: -4.57%.

With `N#CCC(=O)Nc1ccccc1C(=O)O` as the compound, how does the Potency read?
Its Potency is inconclusive: 18.5 µM [inhibitor, single point].

Which Potency does the source give for `CC(=O)NCCC(=O)Nc1cc(S(=O)(=O)N2CCOCC2)ccc1Oc1ccccc1` here?
The Potency was active: 11.7 µM.

With `COc1cc(/C=N/Nc2nc(Nc3ccccc3)nc(N3CCOCC3)n2)ccc1OC(=O)c1ccco1` as the compound, how does the Potency read?
Its Potency is inconclusive: 11.7 µM [inhibitor, single point].

Which “activity change, negative = inhibition” value does the source give for `CCCc1cc(=O)oc2c3c(cc(OCC(=O)N[C@@H](C)C(=O)O)c12)OC(C)(C)CC3` here?
Its value is inactive: -2.77%.

With `COc1ccc(C(=O)Nc2ccc(N3CCCC3)cc2)cc1` as the compound, how does the Potency read?
The Potency was active: 4.15 µM.

With `CCCCc1nnc(NC(=O)Cn2cnc3ccccc3c2=O)s1` as the compound, how does the Potency read?
The Potency was inconclusive: 3.7 µM [inhibitor, single point].

For `Fc1ccc(C2NCCc3[nH]cnc32)cc1` (configuration not stated), which Potency is on record?
The Potency was inconclusive: 9.28 µM [inhibitor, single point].

Which Potency does the source give for `CC(=O)NCCNc1nc2c(-c3cccc(C(F)(F)F)c3)nnn2c2ccccc12` here?
Its Potency is inconclusive: 18.5 µM [inhibitor, single point].

For `CCN(C(=O)C1CCCO1)c1ccccc1` (configuration not stated), which Potency is on record?
The Potency was inconclusive: 11.7 µM [inhibitor, single point].

For `COc1ccc(C(=O)N2N=C(c3cccs3)CC2c2ccccc2O)cc1` (configuration not stated), which Potency is on record?
Its Potency is inconclusive: 18.5 µM [inhibitor, single point].

Which Potency does the source give for `COc1ccc(C(CNC(=O)CNC(=O)c2cccc(C)c2)N2CCOCC2)cc1` (configuration not stated) here?
The Potency was inconclusive: 18.5 µM [inhibitor, single point].

For `CCc1ccc(CN(C)C(C)C(=O)Nc2ccc(S(=O)(=O)N3CCCC3)cc2)cc1` (configuration not stated), which Potency is on record?
The Potency was inconclusive: 10.4 µM [inhibitor, partial curve].

For `COc1ccc(OC)c(CCNC(=O)Cn2ccc3cc(S(=O)(=O)N4CCCC4)ccc32)c1`, which Potency is on record?
The Potency was inconclusive: 18.5 µM [inhibitor, single point].

Which Potency does the source give for `Cc1ccc(/C=C/S(=O)(=O)NCc2ccc(F)cc2)cc1` here?
Its Potency is inconclusive: 0.738 µM [inhibitor, full curve, poor fit].

Which Potency does the source give for `COc1ccc(-n2c(COc3ccccc3)n[nH]c2=S)cc1` here?
The Potency was inconclusive: 18.5 µM [inhibitor, single point].

With `Cc1cccc(OCCCn2c(=O)sc3ccccc32)c1` as the compound, how does the “activity change, negative = inhibition” value read?
Its value is inactive: 108%.

For `CCOC(=O)C1CCCN(C(=O)Cn2nc(C)n3c(cc4c(OC)cccc43)c2=O)C1` (configuration not stated), which Potency is on record?
Its Potency is inconclusive: 14.7 µM [inhibitor, partial curve].

With `CC1(NC(=O)/C=C/c2nc3ccccc3s2)CCS(=O)(=O)C1` (configuration not stated) as the compound, how does the Potency read?
The Potency was inconclusive: 18.5 µM [inhibitor, single point].

For `COc1cscc1C(N)=O`, which Potency is on record?
Its Potency is inconclusive: 4.15 µM [inhibitor, single point].

With `O=C(Cc1ccccc1)NCC(=O)N/N=C/c1ccc(Cl)cc1` as the compound, how does the “activity change, negative = inhibition” value read?
Its value is inactive: -8.71%.

With `CSc1nnc(SCC(=O)N(C)c2c(N)n(Cc3ccccc3)c(=O)[nH]c2=O)s1` as the compound, how does the “activity change, negative = inhibition” value read?
Its value is inactive: -3.36%.

With `CSCCC(NC(=O)c1ccccc1Cl)C(=O)NCC(c1ccco1)N1CCCCC1` (configuration not stated) as the compound, how does the Potency read?
The Potency was active: 7.38 µM.

Which Potency does the source give for `Cc1c(CC(=O)N2C[C@H]3C[C@@H](C2)c2cccc(=O)n2C3)c(=O)oc2cc3occ(C(C)(C)C)c3cc12` here?
Its Potency is active: 8.28 µM.

With `O=c1c(O)c(-c2ccc3c(c2)OCO3)oc2ccccc12` as the compound, how does the Potency read?
The Potency was inconclusive: 18.5 µM [inhibitor, single point].

With `CCCCn1c(=N)n(CC(=O)C(C)(C)C)c2ccccc21` as the compound, how does the Potency read?
Its Potency is inconclusive: 10.4 µM [inhibitor, single point].

For `Cc1c(Cl)cccc1NC(=O)CCC(=O)N/N=C/c1ccc[nH]1`, which Potency is on record?
Its Potency is inconclusive: 13.1 µM [inhibitor, single point].

Which Potency does the source give for `COc1ccc(CCC(=O)N2CCCSC2=Nc2ccc(C(C)=O)cc2)cc1` here?
The Potency was inconclusive: 18.5 µM [inhibitor, single point].

For `CCN1c2ccccc2S(=O)(=O)c2ccccc21`, which Potency is on record?
Its Potency is inconclusive: 0.294 µM [inhibitor, partial curve, poor fit].

Which Potency does the source give for `CCN1CCN(c2nc(Nc3ccc(NC(C)=O)cc3)nc(Nc3ccc(NC(C)=O)cc3)n2)CC1` here?
Its Potency is inconclusive: 8.28 µM [inhibitor, partial curve].

For `COc1cccc(N2CC(C(=O)Nc3nnc(SCC(=O)Nc4ccc(NC(C)=O)cc4)s3)CC2=O)c1` (configuration not stated), which Potency is on record?
The Potency was inconclusive: 18.5 µM [inhibitor, single point].

With `CC(=O)Nc1ccc(CN2CCCCCCC2)cc1` as the compound, how does the Potency read?
Its Potency is inconclusive: 11.7 µM [inhibitor, single point].

For `CCn1c(=O)cc(OCC(=O)Nc2ccc3c(c2)OCCO3)c2ccccc21`, which Potency is on record?
Its Potency is inconclusive: 10.4 µM [inhibitor, partial curve].

For `CCOc1ccc(C(C)=O)cc1COC(=O)CNC(=O)c1cccs1`, which “activity change, negative = inhibition” value is on record?
Its value is inactive: -25.3%.

Which Potency does the source give for `Cc1csc(CN(C)C(=O)C2CCC(=O)N(CCCc3ccccc3)C2)n1` (configuration not stated) here?
The Potency was inconclusive: 4.15 µM [inhibitor, partial curve].

With `COc1ccc(C(CNC(=O)c2ccc(S(=O)(=O)N(C)C)cc2)N2CCCCC2)cc1` (configuration not stated) as the compound, how does the Potency read?
The Potency was inconclusive: 0.0415 µM [inhibitor, full curve, poor fit].

Which “activity change, negative = inhibition” value does the source give for `CCOc1ccc(NC(=O)N(CCCN2CCOCC2)Cc2cccnc2)cc1` here?
The value was inactive: -11.1%.

Which “activity change, negative = inhibition” value does the source give for `Cc1ccc2cc(CN(CC3CCCO3)C(=O)c3cccs3)c(=O)[nH]c2c1` (configuration not stated) here?
Its value is inactive: -15.9%.

With `COc1ccc(CCC(=O)Nc2nc(-c3ccncc3)cs2)cc1` as the compound, how does the Potency read?
The Potency was inconclusive: 10.4 µM [inhibitor, single point].

Which Potency does the source give for `CCCCOc1ccc(Cn2c(=O)oc3ccccc32)cc1` here?
Its Potency is inconclusive: 6.57 µM [inhibitor, single point].

With `Cc1ccc(N2C(=O)CC(Sc3ncn[nH]3)C2=O)cc1C` (configuration not stated) as the compound, how does the Potency read?
Its Potency is inconclusive: 0.0185 µM [inhibitor, full curve, poor fit].

Which Potency does the source give for `COc1cc(/C=N/Nc2ccc(Cl)c(C(=O)O)c2)ccc1OCC(=O)N1C(C)CCCC1C` (configuration not stated) here?
Its Potency is inconclusive: 2.62 µM [inhibitor, full curve, poor fit].

For `CCCn1nc(C(=O)Nc2cc(C(=O)OC)ccc2C)c2ccccc2c1=O`, which Potency is on record?
The Potency was inconclusive: 18.5 µM [inhibitor, single point].

With `CCCCCCCn1c(=N)n(CC(=O)c2ccco2)c2ccccc21` as the compound, how does the Potency read?
The Potency was active: 11.7 µM.

For `COC(CNC(=O)c1ccc(CS(=O)(=O)c2ccccc2)o1)OC`, which Potency is on record?
The Potency was inconclusive: 8.28 µM [inhibitor, partial curve, poor fit].

Which “activity change, negative = inhibition” value does the source give for `O=C(CCCC(=O)N1CCN(c2cccc(Cl)c2)CC1)c1ccccc1` here?
Its value is inactive: 4.4%.

For `Cc1c(OC(C)C(=O)NCC2CCC(C(=O)O)CC2)ccc2c3c(c(=O)oc12)CCCC3` (configuration not stated), which Potency is on record?
Its Potency is inconclusive: 13.1 µM [inhibitor, partial curve].

With `CCOP(=O)(OCC)C(NC(=O)Nc1ccc(Cl)c(Cl)c1)C(N)=O` (configuration not stated) as the compound, how does the “activity change, negative = inhibition” value read?
The value was inactive: 35.6%.

With `Cc1cc(C)c2oc(=O)cc(CN3CCN(Cc4ccccc4)CC3)c2c1` as the compound, how does the Potency read?
Its Potency is inconclusive: 10.4 µM [inhibitor, single point].

For `CCOc1cc2[nH]c(=S)n(Cc3ccc(C(=O)O)cc3)c(=O)c2cc1OCC`, which Potency is on record?
The Potency was active: 9.28 µM.

With `CCCCn1c(-c2nn(C)c(C)c2Cl)n[nH]c1=S` as the compound, how does the Potency read?
Its Potency is inconclusive: 7.38 µM [inhibitor, partial curve, poor fit].

Which “activity change, negative = inhibition” value does the source give for `COC(=O)c1ccc(CSc2nc3sc(C)c(C)c3c(=O)[nH]2)cc1` here?
The value was inactive: 79.3%.

Which Potency does the source give for `CCN(CC)CCNc1nc(-n2nc(C)cc2C)nc2sc3c(c12)CC(C)(C)OC3` here?
The Potency was inconclusive: 2.08 µM [inhibitor, partial curve, poor fit].

For `COc1ccc(CCC(=O)Nc2ncc(C)s2)cc1OC`, which Potency is on record?
The Potency was inconclusive: 11.7 µM [inhibitor, single point].

With `Cc1ccc(NC(=O)Cc2nc(CSc3nnc(-c4ccc5c(c4)OCO5)o3)cs2)cc1` as the compound, how does the Potency read?
Its Potency is active: 3.7 µM.

Which Potency does the source give for `Cc1nc2cc(NC(=O)c3ccc(Cl)cc3)ccc2n1C` here?
Its Potency is inconclusive: 18.5 µM [inhibitor, single point].

With `COc1cccc(C(=O)NCCS(=O)(=O)NCCc2ccccc2)c1` as the compound, how does the “activity change, negative = inhibition” value read?
The value was inactive: 125%.

For `CCCC(=O)Nc1sc2c(c1C(=O)OC)C(C(=O)OC)CC2` (configuration not stated), which “activity change, negative = inhibition” value is on record?
The value was inactive: 0%.

Which Potency does the source give for `CCOc1ccc(C2NC(=S)NC3=C2CCc2ccccc23)cc1` (configuration not stated) here?
The Potency was inconclusive: 10.4 µM [inhibitor, single point].

Which Potency does the source give for `COc1cccc(NC(=O)COc2ccc(C)cc2)c1` here?
The Potency was inconclusive: 18.5 µM [inhibitor, single point].

With `N#CCN1C(=O)C2CCCN2c2ccc(S(=O)(=O)N3CCOCC3)cc21` (configuration not stated) as the compound, how does the “activity change, negative = inhibition” value read?
Its value is inactive: -8.08%.

With `CC1CC(C)CN(C(=O)CNS(=O)(=O)c2cccs2)C1` (configuration not stated) as the compound, how does the Potency read?
The Potency was inconclusive: 10.4 µM [inhibitor, single point].

Which “activity change, negative = inhibition” value does the source give for `CC1CN=C(c2cccn2Cc2ccc(F)cc2Cl)O1` (configuration not stated) here?
The value was inactive: 207%.

With `Cc1ccc(NC(=S)N2CCN(C)CC2)c(C)c1` as the compound, how does the Potency read?
Its Potency is inconclusive: 18.5 µM [inhibitor, single point].

For `CC(Oc1cc(Cl)ccc1Cl)C(=O)N/N=C\c1ccnn1C` (configuration not stated), which “activity change, negative = inhibition” value is on record?
The value was inactive: 9.73%.

With `CC1CN(C(=O)c2ccc(CNS(=O)(=O)c3cccc(Cl)c3)cc2)CC(C)O1` (configuration not stated) as the compound, how does the “activity change, negative = inhibition” value read?
Its value is inactive: 13.3%.
